At least one compound was matched to its structure with a doubt left.
Tests used:
mitoNEET [1] = assay: Western blot analysis of mitoNEET levels in livers of diabetic rats; format: in vivo, rat
mitoNEET [2] = biological target: T1, mitoNEET (Homo sapiens, UniProt Q9NZ45); conditions: cited from earlier work
T1 sequence (Q9NZ45 1-108): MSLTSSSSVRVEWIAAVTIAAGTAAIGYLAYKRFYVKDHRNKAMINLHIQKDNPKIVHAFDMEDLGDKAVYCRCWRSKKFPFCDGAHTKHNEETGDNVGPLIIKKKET

mitoNEET [3] = biological target: T2, mitoNEET (Homo sapiens, UniProt Q9NZ45); assay: NMR spectroscopy (2D homonuclear 1H NOESY) of mitoNEET with and without pioglitazone; format: binding; conditions: pH 7.8, upon addition of pioglitazone
T2 construct: corresponding to amino acids 33-108 was amplified by PCR and cloned into the pet21a+ vector; made in house; host or cells: E. coli BL21-CodonPlus-RIL (printed 'BL21-CodonPlus-R1L'), pet21a+ vector
T2 sequence (Q9NZ45 33-108): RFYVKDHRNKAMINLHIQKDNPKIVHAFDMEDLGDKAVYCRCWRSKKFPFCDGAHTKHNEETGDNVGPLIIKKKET

[4] = biological target: T3, 2Fe-2S cluster of human mitoNEET (Homo sapiens, UniProt Q9NZ45); assay: Stability of the 2Fe-2S cluster of mitoNEET from absorbance at 460 nm over time; format: biochemical
T3 construct: corresponding to amino acids 33-108 was amplified by PCR and cloned into the pet21a+ vector; made in house; host or cells: E. coli BL21-CodonPlus-RIL (printed 'BL21-CodonPlus-R1L'), pet21a+ vector
T3 sequence (Q9NZ45 33-108): T2 sequence (Q9NZ45 33-108)

Row | Compound | mitoNEET levels in liver (Western blot) (mitoNEET [1]; rats that responded in a medium manner to rosiglitazone treatment) | mitoNEET levels in liver (Western blot) (mitoNEET [1]; rats that responded well to rosiglitazone treatment) | binding to mitoNEET in vitro by photoaffinity labeling (mitoNEET [2]) | hydrogen/deuterium exchange rates of amide and ring nitrogen protons of Tyr71 and Trp75 (mitoNEET [3]) | rate of decay of optical spectra, fold slower ([4]; 200 mM Citrate pH 6.0, ~15 μM protein, ~15 μM pioglitazone) [fold] | increase of observed half life of the 2Fe-2S cluster ([4]; absorbance 460 nm, pH 6.0, stoichiometric pioglitazone (15 μM), vs absence of pioglitazone) [fold] | increase of stability of the 2Fe-2S cluster compared to control sample lacking pioglitazone ([4]; pH 6.0, pioglitazone stoichiometric to total 2Fe-2S cluster concentration) [fold]
1 | CN(CCOc1ccc(CC2SC(=O)NC2=O)cc1)c1ccccn1 (stereo not shown) [rosiglitazone] | medium | very low | – | – | – | – | –
2 | CCc1ccc(CCOc2ccc(CC3SC(=O)NC3=O)cc2)nc1 (stereo not shown) [pioglitazone] | – | – | binds to mitoNEET | slower | ~10 | 10 | ~10

Reference: patent publication US8350007B2, “Crystal structure of human mitoNEET protein” (The Regents of the University of California, priority 2007, dated 2013)
